Results are percentages, as filed.
How 0% and 100% were set is not recorded. Most values in the screen are low, and negative values occur.
The compounds are a random part of those screened.
A dash means the value is not listed here; it may have been measured.

By UniProt entry, the sequences of proteins in these tests, tags left out.
UniProt E9BF75, entry or part of it: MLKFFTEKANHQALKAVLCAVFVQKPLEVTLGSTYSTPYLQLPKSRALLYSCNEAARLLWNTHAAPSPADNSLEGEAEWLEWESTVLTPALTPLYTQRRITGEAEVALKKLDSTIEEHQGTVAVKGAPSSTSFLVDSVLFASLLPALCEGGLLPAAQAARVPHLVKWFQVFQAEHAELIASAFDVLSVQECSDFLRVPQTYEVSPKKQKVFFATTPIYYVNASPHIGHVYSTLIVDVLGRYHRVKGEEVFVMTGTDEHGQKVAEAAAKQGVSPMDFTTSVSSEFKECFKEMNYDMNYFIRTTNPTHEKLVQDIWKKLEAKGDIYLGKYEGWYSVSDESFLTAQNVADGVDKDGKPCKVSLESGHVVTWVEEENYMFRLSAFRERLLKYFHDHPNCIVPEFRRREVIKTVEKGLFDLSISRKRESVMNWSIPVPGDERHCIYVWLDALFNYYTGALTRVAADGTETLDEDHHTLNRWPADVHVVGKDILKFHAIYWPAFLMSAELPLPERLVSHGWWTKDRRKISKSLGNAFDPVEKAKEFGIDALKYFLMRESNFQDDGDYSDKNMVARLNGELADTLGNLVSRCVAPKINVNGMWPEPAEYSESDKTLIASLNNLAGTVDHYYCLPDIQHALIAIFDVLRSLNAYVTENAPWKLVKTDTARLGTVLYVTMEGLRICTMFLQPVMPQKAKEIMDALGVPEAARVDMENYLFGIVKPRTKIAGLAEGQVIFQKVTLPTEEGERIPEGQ

LdMetRS: 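Methionyl-tRNA synthetase (putative), Leishmania donovani (UniProt E9BF75). Primary screen of methionyl-tRNA synthetase; the read-out is not stated. The test concentration is not given. The values are filed as inhibition. Size under these conditions: about 68,000 compounds, about 24 of them at 50% or above in at least one test.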
Mtb heat-shock: 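Assay on Mycobacterium tuberculosis, filed only as a heat shock assay from Cornell; the read-out is not stated. The concentration is filed as 10 mM, unlikely as a test dose, so the dose is not known. The record gives no direction; compounds that gave an IC50 in retests scored well above the rest, so higher reads as stronger inhibition. About 69,000 compounds were tested under these conditions; 1.4% (about 930) showed 50% or more at least once.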

* CCN1CCN(C[C@@H]2CN(c3ncc(Cl)cc3F)C[C@@H]2CO)CC1 | LdMetRS: 7.419%; Mtb heat-shock: 7.591%
* O=C(Nc1cnccn1)[C@H]1COC[C@H]2CN(c3ncc(F)cn3)C[C@H]21 | LdMetRS: 17.39%
* CC(C)(C)OC(=O)N1CCC[C@H](NCc2cc[nH]c2)C1 | LdMetRS: 12.54%; Mtb heat-shock: 4.249%
* Cc1cnn(CC2CCCN2C(=O)Cn2nc(C)c(Cl)c2C)c1 (centres undefined) | LdMetRS: 13.9%; Mtb heat-shock: -12.78%
* COCCO[C@H]1CCN(C(=O)c2ccoc2C)[C@H]1Cc1cnn(C)c1 | LdMetRS: 9.581%; Mtb heat-shock: 3.378%
* CC(C)(C)n1ncc2c(=O)n(CC(=O)NCc3ccco3)cnc21 | LdMetRS: 2.878%; Mtb heat-shock: 21.1%
* CCCc1cc(C(=O)NCCC2=CCCCC2)[nH]n1 | LdMetRS: 12.26%; Mtb heat-shock: 8.132%
* CCS(=O)(=O)N1CCC2(CCN(Cc3cccc(OC)c3)CC2)CC1 | LdMetRS: 8.333%
* COc1ncccc1CNC(=O)N1CCCC1c1ccsc1 (centres undefined) | LdMetRS: 10.84%; Mtb heat-shock: -17.68%
* Cc1cc(C(=O)NCCC2CCN(C)CC2)ccc1N(C)S(C)(=O)=O | LdMetRS: 9.422%; Mtb heat-shock: -13.27%
* Cn1cc(CNc2ccc(CCN3CCC(C(N)=O)CC3)cc2)cn1 | LdMetRS: 9.763%; Mtb heat-shock: -9.169%
* Cc1cccc(NC(=O)N2CCC(CO)(Nc3ccccc3)CC2)c1 | LdMetRS: 16.84%; Mtb heat-shock: 18.03%
* O=C(NCCCN1CCc2ccccc2C1)c1ccccc1Br | LdMetRS: 18.21%; Mtb heat-shock: -13.42%
* CC[C@H](C)[C@H](NC(=O)c1cccc(-n2cnnn2)c1)C(=O)OC | LdMetRS: 6.46%; Mtb heat-shock: 13.3%
* O=C(O)C(F)(F)F.O=C(O)C(F)(F)F.[H][C@@]12CCCO[C@]1([H])[C@H](Oc1ccccn1)CN2Cc1nccs1 | Mtb heat-shock: -13.15%
* CN1CC(=O)N(c2cnn(C)c2)CC12CCN(CC1CC1)C2.O=C(O)C(F)(F)F.O=C(O)C(F)(F)F (centres undefined) | Mtb heat-shock: -40.13%
* CC1=NN(c2ccc(C(=O)OCCNC(=O)c3ccncc3)cc2)CC1 | LdMetRS: 18.37%; Mtb heat-shock: -27.66%
* COc1cccc(OCCNCc2ccccc2)c1.O=C(O)C(=O)O | Mtb heat-shock: -6.728%
* COc1ccc(C(NC(=O)NCc2nnc3n2CCC3)C2CC2)cc1 (centres undefined) | LdMetRS: 3.896%; Mtb heat-shock: 2.306%
* CN(C)C(=O)COC1COC2(CCN(c3cnccn3)CC2)C1 (centres undefined) | LdMetRS: 13.49%
* Cc1cc(C(=O)N(C)S(C)(=O)=O)ccc1F | LdMetRS: 3.194%; Mtb heat-shock: -1.914%
* [H][C@]12CC[C@@]3(N=C(c4ccccc4)NC3=O)[C@@]1([H])CN(C(=O)c1cccs1)C2 | Mtb heat-shock: 3%
* O=C(c1ccccc1)N1CCO[C@@H]2CN(c3ncccn3)C[C@@H]2C1 | LdMetRS: 9.42%
* COc1cccc(C(=O)N2CCC(Nc3ccc(C)nn3)CC2)c1 | LdMetRS: 16.91%; Mtb heat-shock: -13.52%
* Cc1cc(C(=O)NC(C)Cc2ccccc2Cl)n(C)n1 (centres undefined) | LdMetRS: 12.04%; Mtb heat-shock: 23.84%
* CC(=O)N1CCNCC1c1cccc(C(=O)N(C)C)c1 (centres undefined) | LdMetRS: 14.04%; Mtb heat-shock: 9.423%
* CC(=O)N1CCN(C(=O)C(C)n2cncn2)CC1 (centres undefined) | LdMetRS: 20.83%; Mtb heat-shock: -22.21%
* c1ccc(-c2nc(CN3CCCC(Cn4cncn4)C3)no2)cc1 (centres undefined) | LdMetRS: 19.44%; Mtb heat-shock: -12.33%
* Cc1cnc(C(=O)N(C)[C@@H]2CCC[C@@H](Oc3ccccc3)[C@@H]2O)cn1 | LdMetRS: 11.58%; Mtb heat-shock: -26.18%
* CC(=O)NCC1CCC2(CCN(c3ncnc4oc(C)nc34)CC2)O1 (centres undefined) | LdMetRS: 13.12%; Mtb heat-shock: -21.92%
* COCCN1CCO[C@@H]2CN(C(=O)NCc3cccnc3)CC[C@@H]2C1 | LdMetRS: -7.769%

Once more, the final 2:

| SMILES | LdMetRS | Mtb heat-shock |
|---|---|---|
| `CC(=O)NCC1CCC2(CCN(c3ncnc4oc(C)nc34)CC2)O1` (centres undefined) | 13.12 | -21.92 |
| `COCCN1CCO[C@@H]2CN(C(=O)NCc3cccnc3)CC[C@@H]2C1` | -7.769 | - |

Measurements from “University of Dundee, Small-Polar-MMV Screening Library” (2021), ChEMBL document CHEMBL3988442.